Test results taken from US20070054916A1, “Aryl nitrogen-containing bicyclic compounds and methods of use” (Amgen Inc., priority 2004, published 2007).
Some of these results come from one statement about several compounds together.

Protein sequences, listed by entry. Tags and fused reporters are not part of them. Residues count along the entry.
UniProt Q02763, 23-1124: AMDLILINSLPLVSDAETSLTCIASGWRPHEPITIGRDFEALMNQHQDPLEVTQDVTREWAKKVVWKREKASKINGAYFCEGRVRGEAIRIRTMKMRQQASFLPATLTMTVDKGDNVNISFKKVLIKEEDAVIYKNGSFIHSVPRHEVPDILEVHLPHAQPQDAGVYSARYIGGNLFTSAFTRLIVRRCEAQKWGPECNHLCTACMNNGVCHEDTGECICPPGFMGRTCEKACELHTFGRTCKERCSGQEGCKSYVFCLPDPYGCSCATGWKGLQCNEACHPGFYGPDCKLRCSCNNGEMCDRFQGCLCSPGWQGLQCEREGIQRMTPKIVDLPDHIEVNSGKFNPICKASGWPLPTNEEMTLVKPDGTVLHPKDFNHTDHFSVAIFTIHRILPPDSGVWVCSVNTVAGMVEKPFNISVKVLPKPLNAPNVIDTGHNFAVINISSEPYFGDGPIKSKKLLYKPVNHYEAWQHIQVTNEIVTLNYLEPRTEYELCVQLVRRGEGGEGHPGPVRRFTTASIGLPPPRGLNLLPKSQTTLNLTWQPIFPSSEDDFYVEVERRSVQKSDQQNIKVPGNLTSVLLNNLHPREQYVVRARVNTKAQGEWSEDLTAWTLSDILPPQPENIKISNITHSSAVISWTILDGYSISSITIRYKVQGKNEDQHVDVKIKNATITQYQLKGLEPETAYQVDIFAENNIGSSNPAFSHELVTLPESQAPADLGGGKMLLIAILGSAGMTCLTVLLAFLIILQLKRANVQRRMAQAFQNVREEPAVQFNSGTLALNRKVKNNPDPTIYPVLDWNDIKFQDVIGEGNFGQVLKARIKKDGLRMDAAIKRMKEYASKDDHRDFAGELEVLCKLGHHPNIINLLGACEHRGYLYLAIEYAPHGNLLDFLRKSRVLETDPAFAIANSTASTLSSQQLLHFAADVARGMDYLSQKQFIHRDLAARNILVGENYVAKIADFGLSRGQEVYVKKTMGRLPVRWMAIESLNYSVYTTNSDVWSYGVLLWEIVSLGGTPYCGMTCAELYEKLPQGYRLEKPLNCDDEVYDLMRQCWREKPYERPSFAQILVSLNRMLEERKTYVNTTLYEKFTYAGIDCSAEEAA

biological target: Tie-2 kinase enzyme (Homo sapiens, UniProt Q02763); experiment: Tie-2 Homogenous Time Resolved Flourescent (HTRF) kinase assay; type: biochemical; conditions: read-out: IC50's for the inhibition of Tie-2 as measured by the HTRF assay

SMILES	IC50
Cc1ccc(C(=O)Nc2cc(C(F)(F)F)ccc2C(F)(F)F)cc1-c1ccc2nc(N)ncc2c1 [Example 77, 3-(2-amino-6-quinazolinyl)-N-(2,5-bis(trifluoromethyl)phenyl)-4-methylbenzamide]	≤ 1 µM
Cc1ccc(C(=O)Nc2cc(C(C)(C)C)ccc2C(C)(C)C)cc1-c1ccc2nc(N)ncc2c1 [Example 78, 3-(2-amino-6-quinazolinyl)-N-(2,5-bis(1,1-dimethylethyl)phenyl)-4-methylbenzamide]	≤ 1 µM
Cc1ccc(C(=O)Nc2cc(C(F)(F)F)ccc2N2CCOCC2)cc1-c1ccc2nc(N)ncc2c1 [Example 79, 3-(2-amino-6-quinazolinyl)-4-methyl-N-(2-(4-morpholinyl)-5-(trifluoromethyl)phenyl)benzamide]	≤ 1 µM
Cc1ccc(C(=O)Nc2cc(C(F)(F)F)ccc2N2CCCC2)cc1-c1ccc2nc(N)ncc2c1 [Example 80, 3-(2-amino-6-quinazolinyl)-4-methyl-N-(2-(1-pyrrolidinyl)-5-(trifluoromethyl)phenyl)benzamide]	≤ 1 µM
Cc1ccc(C(=O)Nc2cc(C(F)(F)F)ccc2N(C)C)cc1-c1ccc2nc(N)ncc2c1 [Example 81, 3-(2-amino-6-quinazolinyl)-N-(2-(dimethylamino)-5-(trifluoromethyl)phenyl)-4-methylbenzamide]	≤ 1 µM
Cc1ccc(C(=O)Nc2cc(C(F)(F)F)ccc2[C@H]2CCCN(C)C2)cc1-c1ccc2nc(N)ncc2c1 [Example 82, 3-(2-amino-6-quinazolinyl)-4-methyl-N-(2-((3R)-1-methyl-3-piperidinyl)-5-(trifluoromethyl)phenyl)benzamide]	≤ 1 µM
Cc1ccc(C(=O)Nc2cc(C(F)(F)F)ccc2C(C)(C)CN(C)C)cc1-c1ccc2nc(N)ncc2c1 [Example 83, 3-(2-amino-6-quinazolinyl)-N-(2-(2-(dimethylamino)-1,1-dimethylethyl)-5-(trifluoromethyl)phenyl)-4-methylbenzamide]	≤ 1 µM
CN(C)CCCN(C)c1ccc(C(F)(F)F)cc1NC(=O)c1cc(-c2ccc3nc(N)ncc3c2)ccc1F [Example 84, 5-(2-amino-6-quinazolinyl)-N-(2-((3-(dimethylamino)propyl)(methyl)amino)-5-(trifluoromethyl)phenyl)-2-fluorobenzamide]	≤ 1 µM
Nc1ncc2cc(-c3ccc(C(=O)Nc4cccc(C(F)(F)F)c4)s3)ccc2n1 [Example 85, 5-(2-amino-6-quinazolinyl)-N-(3-(trifluoromethyl)phenyl)-2-thiophenecarboxamide]	≤ 1 µM
CN(C)CCCN(C)c1ccc(C(F)(F)F)cc1NC(=O)c1ccc(-c2ccc3nc(N)ncc3c2)s1 [Example 86, 5-(2-amino-6-quinazolinyl)-N-(2-((3-(dimethylamino)propyl)(methyl)amino)-5-(trifluoromethyl)phenyl)-2-thiophenecarboxamide]	≤ 1 µM
Nc1ncc2cc(-c3cc(C(=O)Nc4cccc(C(F)(F)F)c4)cs3)ccc2n1 [Example 87, 5-(2-amino-6-quinazolinyl)-N-(3-(trifluoromethyl)phenyl)-3-thiophenecarboxamide]	≤ 1 µM
CN(C)CCc1ccc(C(F)(F)F)cc1NC(=O)c1cc(-c2ccc3nc(N)ncc3c2)ccc1F [Example 88, 5-(2-amino-6-quinazolinyl)-N-(2-(2-(dimethylamino)ethyl)-5-(trifluoromethyl)phenyl)-2-fluorobenzamide]	≤ 1 µM
CN(C)CCCN(C)c1ccc(Cl)cc1NC(=O)c1cc(-c2ccc3nc(N)ncc3c2)ccc1F [Example 89, 5-(2-amino-6-quinazolinyl)-N-(5-chloro-2-((3-(dimethylamino)propyl)(methyl)amino)phenyl)-2-fluorobenzamide]	≤ 1 µM
Cc1ccc(C(=O)Nc2cc(C(F)(F)F)ccc2S(=O)(=O)N(C)CCCN(C)C)cc1-c1ccc2nc(N)ncc2c1 [Example 90]	≤ 1 µM
CN(C)CCCN(C)c1ccc(C(F)(F)F)cc1NC(=O)c1cc(-c2ccc3nc(N)ncc3c2)cs1 [Example 91, 4-(2-amino-6-quinazolinyl)-N-(2-((3-(dimethylamino)propyl)(methyl)amino)-5-(trifluoromethyl)phenyl)-2-thiophenecarboxamide]	≤ 1 µM
CN(C)CCCN(C)c1ccc(C(F)(F)F)cc1NC(=O)c1csc(-c2ccc3nc(N)ncc3c2)c1 [Example 92, 5-(2-amino-6-quinazolinyl)-N-(2-((3-(dimethylamino)propyl)(methyl)amino)-5-(trifluoromethyl)phenyl)-3-thiophenecarboxamide]	≤ 1 µM
CN(C)CCCN(C)c1ccc(C(F)(F)F)cc1NC(=O)c1cc(-c2ccc3nc(N)ncc3c2)ccc1Cl [Example 93, 5-(2-amino-6-quinazolinyl)-2-chloro-N-(2-((3-(dimethylamino)propyl)(methyl)amino)-5-(trifluoromethyl)phenyl)benzamide]	≤ 1 µM
CN(C)CCCN(C)c1ccc(C(F)(F)F)cc1NC(=O)c1cc(Br)cc(-c2ccc3nc(N)ncc3c2)c1 [Example 94, 3-(2-amino-6-quinazolinyl)-5-bromo-N-(2-((3-(dimethylamino)propyl)(methyl)amino)-5-(trifluoromethyl)phenyl)benzamide]	≤ 1 µM
Cc1ccc(C(=O)Nc2cc(Cl)ccc2N(C)CCCN(C)C)cc1-c1ccc2nc(N)ncc2c1 [Example 95, 3-(2-amino-6-quinazolinyl)-N-(5-chloro-2-((3-(dimethylamino)propyl)(methyl)amino)phenyl)-4-methylbenzamide]	≤ 1 µM
CN(C)CCCN(C)c1ccc(C(F)(F)F)cc1NC(=O)c1cc(-c2ccc3nc(N)ncc3c2)cc2c1OCC2 [Example 96, 5-(2-amino-6-quinazolinyl)-N-(2-((3-(dimethylamino)propyl)(methyl)amino)-5-(trifluoromethyl)phenyl)-2,3-dihydro-1-benzofuran-7-carboxamide]	≤ 1 µM
CN(C)CCCN(C)c1ccc(C(F)(F)F)cc1NC(=O)c1cc(-c2ccc3nc(N)ncc3c2)ccc1Br [Example 97, 5-(2-amino-6-quinazolinyl)-2-bromo-N-(2-((3-(dimethylamino)propyl)(methyl)amino)-5-(trifluoromethyl)phenyl)benzamide]	≤ 1 µM
Nc1ncc2cc(-c3cccc(C(=O)Nc4cccc(OC(F)(F)F)c4)c3)ccc2n1 [Example 98, 3-(2-amino-6-quinazolinyl)-N-(3-((trifluoromethyl)oxy)phenyl)benzamide]	≤ 1 µM
COc1cc(-c2ccc3nc(N)ncc3c2)cc(C(=O)Nc2cccc(C(F)(F)F)c2)c1OC [Example 99]	≤ 1 µM
CN(C)CCCN(C)c1ccc(C2CC2)cc1NC(=O)c1cc(-c2ccc3nc(N)ncc3c2)ccc1F [Example 100, 5-(2-amino-6-quinazolinyl)-N-(5-cyclopropyl-2-((3-(dimethylamino)propyl)(methyl)amino)phenyl)-2-fluorobenzamide]	≤ 1 µM
COc1cc(-c2ccc3nc(N)ncc3c2)cc(C(=O)Nc2cc(C(F)(F)F)ccc2N(C)CCCN(C)C)c1OC [Example 101, 5-(2-amino-6-quinazolinyl)-N-(2-((3-(dimethylamino)propyl)(methyl)amino)-5-(trifluoromethyl)phenyl)-2,3-bis(methyloxy)benzamide]	≤ 1 µM
Nc1ncc2cc(-c3cc4c(c(C(=O)Nc5cccc(C(F)(F)F)c5)c3)OCC4)ccc2n1 [Example 102, 5-(2-amino-6-quinazolinyl)-N-(3-(trifluoromethyl)phenyl)-2,3-dihydro-1-benzofuran-7-carboxamide]	≤ 1 µM
